Measurements reported in PubChem BioAssay AID504764 (Drosophila RNAi Screening Center, 2011).
Screen: 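Genes whose knock-down alters Notch-dependent transcription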 (primary screen). Cell system: Drosophila Kc167 cells. Reagents: long dsRNA against Drosophila genes. Timing: about 5 days (4 days dsRNA, then 24 h after transfection). Conditions: transfection of constitutively active membrane-tethered Notch lacking the extracellular domain, read 24 h later. Measurement: 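Firefly luciferase from an E(spl)m3 reporter with active Notch, plus control-promoter and uninduced reporter wells for normalisation; unnormalised counts, duplicate wells a and b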. Reading the numbers: induced reporter light, run 1, well a and induced reporter light, run 1, well b: higher = more light from the Notch target reporter with active Notch; control promoter light, run 1, well a and control promoter light, run 1, well b: higher = more light from the viral control promoter (cell number, transfection, viability); uninduced reporter light, run 1, well a: higher = more light from the Notch target reporter without active Notch. Rule for the call: 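Wells with low control signal or poorly matching duplicates excluded; duplicates averaged; per source plate, z beyond ±2 for induced/control log2 ratio or beyond ±1.8 for induced/uninduced marks a hit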. Calls: active = modifier hit (raised or lowered Notch signal); inactive = not a hit.
The deposit covers about 22,000 reagents; shown is a random part of those with a known target gene and a result. In the full data, 403 (1.9%) are marked active. 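Unnormalised raw counts per well; ratio z-scores behind the hit calls and whether each hit raises or lowers signal are not deposited.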 Reagent sequences are not shown. Not stated in the record: the amount of reagent.

gene | dsRNA | induced reporter light, run 1, well a | induced reporter light, run 1, well b | control promoter light, run 1, well a | control promoter light, run 1, well b | uninduced reporter light, run 1, well a | Call
Had1 (beta Hydroxy acid dehydrogenase 1) | DRSC20216 | 1.01e5 | 65310 | 97475 | 97590 | 12870 | inactive
RhoGEF3 (Rho guanine nucleotide exchange factor 3) | DRSC08351 | 1.00e5 | 1.42e5 | 2.19e5 | 1.74e5 | 6025 | inactive
RhoGEF3 (Rho guanine nucleotide exchange factor 3) | DRSC08352 | 1.25e5 | 1.33e5 | 2.95e5 | 2.68e5 | 6385 | inactive
Hug (Hugin) | DRSC16969 | 81395 | 84310 | 88255 | 61405 | 6690 | inactive
CG18233 | DRSC10308 | 1.52e5 | 1.51e5 | 2.23e5 | 2.06e5 | 10860 | inactive
Pi3K68D (Phosphatidylinositol 3-kinase 68D) | DRSC11253 | 1.10e5 | 1.01e5 | 93720 | 39395 | 9200 | inactive
AstA-R2 (Allatostatin A receptor 2) | DRSC14171 | 1.21e5 | 1.45e5 | 1.67e5 | 1.69e5 | 13050 | inactive
Cpr56F (Cuticular protein 56F) | DRSC07326 | 1.42e5 | 1.09e5 | 1.38e5 | 1.60e5 | 8575 | inactive
CG17752 | DRSC15262 | 1.83e5 | 1.62e5 | 1.76e5 | 1.87e5 | 12428 | inactive
CG31174 | DRSC13518 | 56280 | 47670 | 77985 | 48050 | 7575 | inactive
Polr3I (RNA polymerase III subunit I) | DRSC19922 | 84765 | 92310 | 72445 | 39865 | 7650 | inactive
ACXE (Adenylyl cyclase X E) | DRSC00847 | 1.60e5 | 1.56e5 | 1.46e5 | 1.60e5 | 12210 | inactive
CG3062 | DRSC18572 | 1.19e5 | 1.18e5 | 2.28e5 | 2.88e5 | 11645 | inactive
CG14096 | DRSC10099 | 1.46e5 | 1.03e5 | 1.36e5 | 93930 | 10450 | inactive
Uro (Urate oxidase) | DRSC03469 | 1.58e5 | 1.97e5 | 1.43e5 | 1.30e5 | 26525 | inactive

5 entries from above in another layout:
gene,dsRNA,"induced reporter light, run 1, well a","induced reporter light, run 1, well b","control promoter light, run 1, well a","control promoter light, run 1, well b","uninduced reporter light, run 1, well a",Call
CG18233,DRSC10308,1.52e5,1.51e5,2.23e5,2.06e5,10860,inactive
Pi3K68D (Phosphatidylinositol 3-kinase 68D),DRSC11253,1.10e5,1.01e5,93720,39395,9200,inactive
AstA-R2 (Allatostatin A receptor 2),DRSC14171,1.21e5,1.45e5,1.67e5,1.69e5,13050,inactive
Cpr56F (Cuticular protein 56F),DRSC07326,1.42e5,1.09e5,1.38e5,1.60e5,8575,inactive
CG17752,DRSC15262,1.83e5,1.62e5,1.76e5,1.87e5,12428,inactive

More reagents:
gene | dsRNA | induced reporter light, run 1, well a | induced reporter light, run 1, well b | control promoter light, run 1, well a | control promoter light, run 1, well b | uninduced reporter light, run 1, well a | Call
TORIP (Torsin interacting protein) | DRSC10104 | 84810 | 79520 | 48590 | 58300 | 6795 | inactive
crok (crooked) | DRSC02593 | 1.41e5 | 1.41e5 | 1.43e5 | 1.50e5 | 12165 | inactive
Cdep (Chondrocyte-derived ezrin-like domain containing protein) | DRSC12028 | 1.74e5 | 1.96e5 | 2.02e5 | 2.23e5 | 18870 | inactive
Cdep (Chondrocyte-derived ezrin-like domain containing protein) | DRSC12220 | 1.54e5 | 1.79e5 | 1.02e5 | 1.04e5 | 10120 | inactive
Cdep (Chondrocyte-derived ezrin-like domain containing protein) | DRSC12291 | 1.39e5 | 1.20e5 | 1.18e5 | 84165 | 12155 | inactive
140up (upstream of RpII140) | DRSC12634 | 1.34e5 | 1.27e5 | 99935 | 85535 | 9825 | inactive
CG13339 | DRSC06373 | 99465 | 1.16e5 | 1.63e5 | 1.70e5 | 10285 | inactive
CG34320 (retired record) | DRSC17682 | 51250 | 70490 | 59130 | 68085 | 4260 | inactive
CG34327 | DRSC19517 | 81790 | 75655 | 1.13e5 | 83845 | 10745 | inactive
AANATL7 (Arylalkylamine N-acetyltransferase-like 7) | DRSC18616 | 89665 | 94340 | 1.83e5 | 1.82e5 | 8165 | inactive
CG7191 | DRSC03022 | 1.46e5 | 1.47e5 | 1.17e5 | 1.36e5 | 20695 | inactive
CG31036 | DRSC15055 | 1.44e5 | 1.51e5 | 1.85e5 | 1.88e5 | 13270 | inactive
CG31036 | DRSC15057 | 1.19e5 | 1.22e5 | 1.41e5 | 1.21e5 | 11945 | inactive
CG11155 | DRSC17184 | 61875 | 59225 | 63310 | 71610 | 5170 | inactive
CG11155 | DRSC17205 | 1.89e5 | 1.75e5 | 1.96e5 | 2.16e5 | 10345 | inactive
CG3251 | DRSC00586 | 1.74e5 | 2.20e5 | 2.49e5 | 2.26e5 | 14575 | inactive
Atg5 (Autophagy-related 5) | DRSC18112 | 2.20e5 | 1.78e5 | 2.60e5 | 2.07e5 | 13950 | inactive
ssp (sunspot) | DRSC10252 | 1.05e5 | 1.20e5 | 92780 | 43155 | 10632 | inactive
unpg (unplugged) | DRSC07713 | 1.63e5 | 1.78e5 | 2.31e5 | 2.03e5 | 14825 | inactive
